Measured values taken from publication PMC4370648.
These are yes or no findings as the source states them, for the method shown. Some results given as binding are weak or reduced against the parent protein; the word gives no strength. Where a sequence is shown, tags or fusion partners need not be part of it. Blank lines part the entries; values can stand above or below the binder they belong to.

Assays:
[1] = molecular target: T1, mouse Slamf1 on transfected HEK293 cells (mouse) (UniProt Q9QUM4); assay: flow cytometry on cells; 10 μg Fc fusion protein incubated with 1×10^6 transfected HEK293 cells (24 h after transfection) on ice for 60 minutes; detected with biotin-conjugated goat anti-human IgG Fc and streptavidin-PE; only the binder purified
T1 sequence: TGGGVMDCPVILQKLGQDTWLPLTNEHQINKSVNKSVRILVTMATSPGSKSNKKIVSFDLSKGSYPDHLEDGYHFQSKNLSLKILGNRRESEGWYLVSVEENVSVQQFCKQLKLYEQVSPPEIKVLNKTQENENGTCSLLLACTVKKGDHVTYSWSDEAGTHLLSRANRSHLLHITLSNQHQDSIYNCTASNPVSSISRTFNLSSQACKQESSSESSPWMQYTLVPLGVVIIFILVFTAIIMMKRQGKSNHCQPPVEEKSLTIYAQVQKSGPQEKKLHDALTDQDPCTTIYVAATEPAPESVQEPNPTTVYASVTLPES

[2] = molecular target: T2, mouse Slamf8 on transfected HEK293 cells (mouse) (UniProt Q9D3G2); assay: as above
T2 sequence: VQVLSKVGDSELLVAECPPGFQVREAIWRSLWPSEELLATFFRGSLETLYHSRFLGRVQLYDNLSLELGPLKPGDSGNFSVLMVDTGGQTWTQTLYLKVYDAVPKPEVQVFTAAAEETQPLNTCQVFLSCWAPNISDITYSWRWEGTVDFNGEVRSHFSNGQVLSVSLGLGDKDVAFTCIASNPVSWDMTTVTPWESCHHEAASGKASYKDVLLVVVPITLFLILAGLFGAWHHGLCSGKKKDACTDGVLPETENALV

binding [1]: binds
B1: murine Slamf1-Fc fusion protein (Fc fusion, UniProt Q9QUM4 25-242)
chain: TGGGVMDCPVILQKLGQDTWLPLTNEHQINKSVNKSVRILVTMATSPGSKSNKKIVSFDLSKGSYPDHLEDGYHFQSKNLSLKILGNRRESEGWYLVSVEENVSVQQFCKQLKLYEQVSPPEIKVLNKTQENENGTCSLLLACTVKKGDHVTYSWSDEAGTHLLSRANRSHLLHITLSNQHQDSIYNCTASNPVSSISRTFNLSSQACKQESSSESSP
binding [2]: no binding (tested: 10 μg per 1×10^6 cells)

binding [2]: binds
B2: murine Slamf8-Fc fusion protein (Fc fusion, UniProt Q9D3G2 21-231)
chain: VQVLSKVGDSELLVAECPPGFQVREAIWRSLWPSEELLATFFRGSLETLYHSRFLGRVQLYDNLSLELGPLKPGDSGNFSVLMVDTGGQTWTQTLYLKVYDAVPKPEVQVFTAAAEETQPLNTCQVFLSCWAPNISDITYSWRWEGTVDFNGEVRSHFSNGQVLSVSLGLGDKDVAFTCIASNPVSWDMTTVTPWESCHHEAASGKASYKD
binding [1]: no binding (tested: 10 μg per 1×10^6 cells)
